Source: patent US7306804B2 (priority 1998, dated 2007)
Some results were stated once for a whole list of compounds, not compound by compound.

Each sequence was assayed on PBMCs from normal and HIV-positive individuals. Details: patient fifteen.
Format: cell-based, human

Sequence	SI values, efficient proliferative responses
CRIKQIINMWQGVGKAMYA [Peptide 122]	> 3.0
SVITQACSKVSFE [Peptide 113]	> 3.0
YLRDQQLLGIWG [Peptide 120]	> 3.0
FLGFLGAAGSTMGAASLTLTVQARQ [Peptide 121]	> 3.0
